# Source: PubChem BioAssay (NCATS)
# The inconclusive results got no clear call from the source; some entries with a clear call stand among them for comparison. Potencies beside an inconclusive call are fits to weak or partial responses and may not hold up. Calls of active or inactive are those of the source. Calls come from the whole dose curve; as a rule, active = well fitted cell-killing curve with a large enough effect; inconclusive = small, poorly fitted or top-dose-only effect, or effect the other way; inactive = no such curve, though single readings can be large or run the other way.
# Assay: Quantitative High-Throughput drug screen in 47 multiple myeloma cell lines against the NCATS MIPE library collection: Karpas417_ECACC cell viability assay (AID 1918961)
# Conditions: Karpas417 myeloma viability, CellTiter-Glo ATP luminescence, 48 h; series mostly up to 45.8 µM
# Summary of the method: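 Relative luminescence from CellTiter-Glo served as the viability signal, referenced to DMSO-treated (100%) and cell-free medium (0%) controls. Treatment lasted 48 hours at 37C with 500 cells per well.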
# Potency is the fitted concentration of half-maximal effect.
row,SMILES,Potency
1,CC[C@H](C)C(=O)O[C@H]1C[C@@H](C)C=C2C=C[C@H](C)[C@H](CC[C@@H]3C[C@@H](O)CC(=O)O3)[C@H]21,"inconclusive: 2.64 µM [rising, full curve, poor fit]"
2,O=C(c1ccc(F)cc1)C1CCN(CCn2c(=O)[nH]c3ccccc3c2=O)CC1,"inconclusive: 33.2 µM [rising, single point]"
3,Clc1ccc(C2(c3ccc(-c4cn[nH]c4)cc3)CCNCC2)cc1,active: 6.62 µM
4,CSc1cccc(Nc2ncc3cc(-c4c(Cl)cccc4Cl)c(=O)n(C)c3n2)c1,active: 0.0264 µM
5,COc1ccc(-c2ccc3cc(C(=O)O)ccc3c2)cc1C12CC3CC(CC(C3)C1)C2,"inconclusive: 0.0526 µM [rising, full curve, poor fit]"
6,COc1nc(C)cnc1NS(=O)(=O)c1cccnc1-c1ccc(-c2nnco2)cc1,"inconclusive: 16.6 µM [rising, partial curve, poor fit]"
7,Cc1nnc(C(=O)NC(C)(C)c2nc(C(=O)NCc3ccc(F)cc3)c(O)c(=O)n2C)o1,"inconclusive: 33.2 µM [rising, partial curve, poor fit]"
8,OC[C@H](Cc1ccccc1)Nc1nc(Oc2ccc3c(c2)CCC3)nc2c1ncn2Cc1ccc(-c2ccccc2)cc1,inactive
9,Nc1nc(N)nc(-c2cc(Cl)ccc2Cl)n1,inactive
10,CCc1nc(-c2cccc(C)c2)c(-c2ccnc(NC(=O)c3ccccc3)c2)s1,"inconclusive: 18.7 µM [cytotoxic, partial curve, poor fit]"
11,CC(C)(S)[C@@H](N)C(=O)O,"inconclusive: 11.8 µM [rising, single point]"
12,c1cc(N[C@@H]2CCNC2)nc(-c2cnc3ccc(-c4cn[nH]c4)cn23)c1,active: 4.69 µM
13,O=C(NCCS(=O)(=O)c1ccc(C(F)(F)F)cn1)c1ccc(Cl)cc1,active: 0.0235 µM
14,CN(C)CCCC1(c2ccc(F)cc2)OCc2cc(C#N)ccc21 (stereo not given),"inconclusive: 18.7 µM [rising, partial curve, poor fit]"
15,COc1ccc2nc(S(=O)Cc3ncc(C)c(OC)c3C)[nH]c2c1 (stereo not given),"inconclusive: 4.18 µM [cytotoxic, full curve, poor fit]"
16,CCCc1nc(C(C)(C)O)c(C(=O)O)n1Cc1ccc(-c2ccccc2-c2nn[nH]n2)cc1,"inconclusive: 0.0059 µM [cytotoxic, full curve, poor fit]"
17,Cn1c(CNc2ccc(C(=N)N)cc2)nc2cc(C(=O)N(CCC(=O)O)c3ccccn3)ccc21,"inconclusive: 0.144 µM [cytotoxic, full curve, poor fit]"
18,O=C(O)c1ccc(O)c2ncc(N3CCOCC3)cc12,"inconclusive: 8.33 µM [cytotoxic, full curve, poor fit]"
19,CC[C@H](CC#N)OC(=O)N[C@@H](C)c1cccc(NC(=O)Nc2ccc(-c3cnco3)c(OC)c2)c1,"inconclusive: 20.9 µM [cytotoxic, partial curve, poor fit]"
20,CCCCCCCCCCCCCCCC(=O)O[C@H]1[C@@H](O)[C@@H](O)[C@@H]([C@H](NC(=O)[C@@H]2C[C@@H](CCC)CN2C)[C@H](C)Cl)O[C@@H]1SC,"inconclusive: 16.6 µM [rising, partial curve, poor fit]"
21,CCOc1cc2ncc(C#N)c(Nc3ccc(F)c(Cl)c3)c2cc1NC(=O)C=CCN(C)C,"inconclusive: 10.5 µM [rising, full curve, poor fit]"
22,C[C@@H](NC(=O)c1ncnc(N)c1Cl)c1ncc(C(=O)Nc2cc(C(F)(F)F)c(Cl)cn2)s1,active: 2.96 µM
23,CCN(CCO)CCCOc1ccc2c(Nc3cc(CC(=O)Nc4cccc(F)c4)[nH]n3)ncnc2c1,active: 0.469 µM
24,CC[C@H]1OC(=O)[C@H](C)[C@@H](O[C@H]2C[C@@](C)(OC)[C@@H](O)[C@H](C)O2)[C@H](C)[C@@H](O[C@@H]2O[C@@H](C)C[C@H](N(C)C)[C@@H]2O)[C@](C)(O)C[C@@H](C)C(=O)[C@H](C)[C@@H](O)[C@]1(C)O,"inconclusive: 0.0148 µM [cytotoxic, full curve, poor fit]"
25,COc1ccc(CCN2CCN(CCCc3ccccc3)CC2)cc1OC,"inconclusive: 2.35 µM [cytotoxic, full curve, poor fit]"

# Retrieved by compound from the entries so far, 2 records:
row,SMILES,Potency
13,O=C(NCCS(=O)(=O)c1ccc(C(F)(F)F)cn1)c1ccc(Cl)cc1,active: 0.0235 µM
12,c1cc(N[C@@H]2CCNC2)nc(-c2cnc3ccc(-c4cn[nH]c4)cn23)c1,active: 4.69 µM
